For this assay, the target named is SPX1^1–259 (C-terminally truncated fragment of rice SPX1) (rice) (UniProt Q69XJ0). Put plainly: SEC-MALS; Superdex 200 Increase 10/300 GL, buffer C (20 mM Tris/HCl pH 8.0, 200 mM NaCl, 1 mM TCEP) without InsP6, 2–3 mg/ml, 4 °C; both purified. A general note: Size exclusion chromatography separates by hydrodynamic size, large species first.

No constants are given. Whether binding was seen depends on the method and setting.

B1: SPX1^1–259 (C-terminally truncated fragment of rice SPX1) (domain or fragment, UniProt Q69XJ0 1-259)
chain: MKFGKSLSSQIVETLPEWRDKFLSYKDLKKRLKLIGGGGGGEERQAKRARVAADGGEEEAAAAAMTPEEAGFMRLLEAELDKFNSFFVEKEEEYIIRQKELQDRVARAAGRESKEELMRVRKEIVDFHGEMVLLENYSALNYTGLVKILKKYDKRTGALIRLPFIQKVLQQPFFTTDLLYKLVKQCEAMLDQLLPSNELSVSSEDGRGDSTNEDKPSNPSSSLVNGGTIPELDEIEYMESMYMKGTVAALRSLKEIRSG
For B1, the binding entry is “no binding”.

(Values after paper PMC8639918, “Mechanism of phosphate sensing and signaling revealed by rice SPX1-PHR2 complex structure” (Nature Communications, 2021).)
